Test results taken from patent US20050043221A1 (BROWN UNIVERSITY, published 2005).
No constants are given. Whether binding was seen depends on the method and setting. For part of these data: Binding seen in cells or lysates may run through a third protein. Some results given as binding are weak or reduced against the parent protein; the word gives no strength. Where a sequence is shown, tags or fusion partners need not be part of it.

What was measured:
[1] = biological target: T1, recombinant human biglycan core polypeptide (no side chains), His-tagged, vaccinia system (human) (UniProt P21810); experiment: blot overlay on purified recombinant biglycan core (FIG. 17C)
T1 sequence: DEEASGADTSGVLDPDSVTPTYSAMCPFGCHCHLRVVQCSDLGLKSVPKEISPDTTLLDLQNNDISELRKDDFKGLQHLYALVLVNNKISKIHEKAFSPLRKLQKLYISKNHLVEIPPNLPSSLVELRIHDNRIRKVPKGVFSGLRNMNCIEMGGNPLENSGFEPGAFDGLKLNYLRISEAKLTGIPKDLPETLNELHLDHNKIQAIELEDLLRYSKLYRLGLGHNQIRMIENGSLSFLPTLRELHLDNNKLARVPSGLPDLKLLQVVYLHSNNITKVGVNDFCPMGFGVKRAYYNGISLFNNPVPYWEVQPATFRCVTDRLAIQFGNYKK

[2] = biological target: T1, recombinant human biglycan core polypeptide (no side chains), His-tagged, vaccinia system (human); experiment: blot overlay with 35S in vitro translated sarcoglycan (FIG. 8A)
[3] = biological target: T1, recombinant human biglycan core polypeptide (no side chains), His-tagged, vaccinia system (human); experiment: blot overlay, 1 µg of purified recombinant protein (FIG. 19B)
[4] = biological target: T1, recombinant human biglycan core polypeptide (no side chains), His-tagged, vaccinia system (human); experiment: co-immunoprecipitation in solution with anti-biglycan or anti-poly-His, protein G beads (FIG. 18A)
[5] = biological target: T2, α-sarcoglycan, 35S-methionine-labelled, in vitro translated (human) (UniProt Q16586); experiment: blot overlay
T2 sequence (looked up): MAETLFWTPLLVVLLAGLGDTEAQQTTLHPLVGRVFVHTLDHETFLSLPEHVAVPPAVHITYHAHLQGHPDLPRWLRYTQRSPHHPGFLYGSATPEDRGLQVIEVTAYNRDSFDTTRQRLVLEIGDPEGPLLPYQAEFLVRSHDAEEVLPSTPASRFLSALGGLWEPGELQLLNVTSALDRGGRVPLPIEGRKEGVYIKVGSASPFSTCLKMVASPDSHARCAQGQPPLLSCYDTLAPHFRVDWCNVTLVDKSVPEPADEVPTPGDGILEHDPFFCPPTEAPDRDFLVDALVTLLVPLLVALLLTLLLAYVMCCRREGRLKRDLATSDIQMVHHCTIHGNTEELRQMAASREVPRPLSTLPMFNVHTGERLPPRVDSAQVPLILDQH

[6] = biological target: T2, α-sarcoglycan, 35S-methionine-labelled, in vitro translated (human); experiment: blot overlay with 35S in vitro translated sarcoglycan

Measured: binding

B1: α-sarcoglycan, 35S-methionine-labelled, in vitro translated (protein, human, UniProt Q16586 1-387, looked up)
chain: T2 sequence (looked up)
binds: [1] | [2] | [3] | [4]

B2: recombinant human biglycan core polypeptide (no side chains), His-tagged, vaccinia system (protein, not shown: small tags and cut ends)
chain: T1 sequence
binds: [5] | [6]
